{"source": "PubChem BioAssay AID743121 (NCATS, 2013)", "purpose": "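Knock-downs that sensitise breast cancer cells to camptothecin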 (primary screen)", "cell system": "MDA-MB-231 cells, a human breast cancer line", "knock-down reagent": "single siRNA against human genes, 20 nM siRNA (0.8 pmol per well)", "timing": "120 h (drug added 48 h after transfection, read 72 h later)", "conditions": "camptothecin 20 nM (about EC30) for 72 h; vehicle 0.1% DMSO in parallel plates", "measurement": "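Cell viability by ATP luminescence (CellTiter-Glo) as % of non-targeting siRNA wells, and the log2 ratio of viability without drug over viability with camptothecin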", "direction": "log2 vehicle/camptothecin viability: higher = stronger sensitisation to camptothecin; viability with camptothecin: higher = more viable cells", "units": "viability with camptothecin in % of control", "rule for the call": "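Each gene scored by redundant siRNA activity (RSA) over its individual siRNA ratios; a gene is called active at p < 0.001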", "note": "This is one part, drawn at random, of about 26,000 reagents. Over the whole deposit, 167 (0.63%) were called active. 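Calls are per gene from RSA p-values that are not deposited; an individual active-marked siRNA can sensitise only weakly.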 Reagents against one gene are numbered here. Not all columns of the deposit are shown."}
{"gene":"HK2","reagent no.":1,"log2 vehicle/camptothecin viability":-0.334,"viability with camptothecin":98,"Outcome":"inactive"}
{"gene":"HK2","reagent no.":2,"log2 vehicle/camptothecin viability":-0.419,"viability with camptothecin":68.2,"Outcome":"inactive"}
{"gene":"HK2","reagent no.":3,"log2 vehicle/camptothecin viability":-0.0467,"viability with camptothecin":89.8,"Outcome":"inactive"}
{"gene":"HK2","reagent no.":4,"log2 vehicle/camptothecin viability":-0.391,"viability with camptothecin":99.4,"Outcome":"inactive"}
{"gene":"UBE2C","reagent no.":1,"log2 vehicle/camptothecin viability":0.0153,"viability with camptothecin":100,"Outcome":"inactive"}
{"gene":"UBE2C","reagent no.":2,"log2 vehicle/camptothecin viability":-0.295,"viability with camptothecin":122,"Outcome":"inactive"}
{"gene":"UBE2C","reagent no.":3,"log2 vehicle/camptothecin viability":0.275,"viability with camptothecin":35.5,"Outcome":"inactive"}
{"gene":"UBE2C","reagent no.":4,"log2 vehicle/camptothecin viability":0.231,"viability with camptothecin":60.1,"Outcome":"inactive"}
{"gene":"UBE2C","reagent no.":5,"log2 vehicle/camptothecin viability":0.122,"viability with camptothecin":62.8,"Outcome":"inactive"}
{"gene":"UBE2C","reagent no.":6,"log2 vehicle/camptothecin viability":-0.26,"viability with camptothecin":121,"Outcome":"inactive"}
{"gene":"UBE2C","reagent no.":7,"log2 vehicle/camptothecin viability":-0.0716,"viability with camptothecin":106,"Outcome":"inactive"}
{"gene":"UBE2C","reagent no.":8,"log2 vehicle/camptothecin viability":0.187,"viability with camptothecin":75.4,"Outcome":"inactive"}
{"gene":"UBE2C","reagent no.":9,"log2 vehicle/camptothecin viability":-0.211,"viability with camptothecin":55.8,"Outcome":"inactive"}
{"gene":"UBE2C","reagent no.":10,"log2 vehicle/camptothecin viability":-0.00619,"viability with camptothecin":82.8,"Outcome":"inactive"}
{"gene":"UBE2C","reagent no.":11,"log2 vehicle/camptothecin viability":0.113,"viability with camptothecin":93.6,"Outcome":"inactive"}
{"gene":"UBE2C","reagent no.":12,"log2 vehicle/camptothecin viability":-0.213,"viability with camptothecin":72.4,"Outcome":"inactive"}
{"gene":"PPP1R14D","reagent no.":1,"log2 vehicle/camptothecin viability":0.408,"viability with camptothecin":41.5,"Outcome":"inactive"}
{"gene":"PPP1R14D","reagent no.":2,"log2 vehicle/camptothecin viability":-0.34,"viability with camptothecin":141,"Outcome":"inactive"}
{"gene":"PPP1R14D","reagent no.":3,"log2 vehicle/camptothecin viability":-0.267,"viability with camptothecin":65.5,"Outcome":"inactive"}
{"gene":"PPP1R14D","reagent no.":4,"log2 vehicle/camptothecin viability":0.17,"viability with camptothecin":45.8,"Outcome":"inactive"}
{"gene":"SIRT4","reagent no.":1,"log2 vehicle/camptothecin viability":0.263,"viability with camptothecin":51.2,"Outcome":"inactive"}
{"gene":"SIRT4","reagent no.":2,"log2 vehicle/camptothecin viability":-0.741,"viability with camptothecin":35.7,"Outcome":"inactive"}
{"gene":"SIRT4","reagent no.":3,"log2 vehicle/camptothecin viability":0.241,"viability with camptothecin":86.3,"Outcome":"inactive"}
{"gene":"SIRT4","reagent no.":4,"log2 vehicle/camptothecin viability":-0.00838,"viability with camptothecin":73.5,"Outcome":"inactive"}
{"gene":"TRPC4AP","reagent no.":1,"log2 vehicle/camptothecin viability":0.25,"viability with camptothecin":58.8,"Outcome":"inactive"}
{"gene":"TRPC4AP","reagent no.":2,"log2 vehicle/camptothecin viability":-0.101,"viability with camptothecin":98.1,"Outcome":"inactive"}
{"gene":"TRPC4AP","reagent no.":3,"log2 vehicle/camptothecin viability":-0.148,"viability with camptothecin":70.9,"Outcome":"inactive"}
{"gene":"TRPC4AP","reagent no.":4,"log2 vehicle/camptothecin viability":-0.104,"viability with camptothecin":84.5,"Outcome":"inactive"}
{"gene":"CD207","reagent no.":1,"log2 vehicle/camptothecin viability":-0.0916,"viability with camptothecin":50.9,"Outcome":"inactive"}
{"gene":"CD207","reagent no.":2,"log2 vehicle/camptothecin viability":-0.009,"viability with camptothecin":71.2,"Outcome":"inactive"}
{"gene":"CD207","reagent no.":3,"log2 vehicle/camptothecin viability":-0.108,"viability with camptothecin":91.1,"Outcome":"inactive"}
{"gene":"PTN","reagent no.":1,"log2 vehicle/camptothecin viability":0.318,"viability with camptothecin":56.1,"Outcome":"inactive"}
{"gene":"PTN","reagent no.":2,"log2 vehicle/camptothecin viability":-0.0848,"viability with camptothecin":43.7,"Outcome":"inactive"}
{"gene":"PTN","reagent no.":3,"log2 vehicle/camptothecin viability":0.181,"viability with camptothecin":54.8,"Outcome":"inactive"}
{"gene":"PTN","reagent no.":4,"log2 vehicle/camptothecin viability":0.242,"viability with camptothecin":35.9,"Outcome":"inactive"}
